# Some of the results follow. These are further read-outs of the screen, such as a control signal, another cell line or another target. No call is given for them. Compounds called inactive in the main read-out are mostly missing here. Potencies come from curve fits of mixed quality, noted in brackets.
# Assay: IkB Signaling
# Conditions: ABC-DLBCL IkBa-CBG/CBR dual luciferase ratio (green luciferase fused to IkBa over red control in OCI-Ly3 lymphoma cells), 4 h
# Method in brief: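 In this assay, an IκBα–CBG68 fusion accumulates when IKK-driven degradation is blocked; native CBR normalizes for cell number. OCI-Ly3 cells were treated 4 h with compound and doxycycline, then green and red light read after Chroma-Glo addition.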
# [1] = measured here: control luc red channel unless noted
# [2] = measured here: IkB-luc green channel
# [3] = measured here: control luc red channel
structure (smiles),measurement,setting,value
COCCn1ccc2c(OCC(=O)Nc3cccc(OC)c3)cccc2c1=O,AC50,[1],"12.6 µM [falling, partial curve]"
Cc1ccc(Cl)cc1N1CCN(C(=O)COc2ccc(S(=O)(=O)NC(C)C)cc2)CC1,AC50,[1],"12.6 µM [falling, partial curve]"
COc1ccc(CNC(=O)c2c(O)nc3cc(C)ccn3c2=O)cc1,AC50,[1],"25.1 µM [falling, single point]"
CCc1ccc2ncc3c(-c4ccc(F)cc4)nn(CC(=O)NCc4ccccc4)c3c2c1,AC50,[1],"3.16 µM [falling, partial curve]"
Cc1ccc(C(C)C)c(OCC(=O)Nc2ccc(C(=O)OC3CCCCC3)cc2)c1,AC50,[1],"0.1 µM [rising, full curve]"
Cc1ccc(/C=C/c2onc(C)c2S(=O)(=O)N2CCC(C(=O)NCc3ccc(C)o3)CC2)cc1,AC50,[1],"39.8 µM [rising, partial curve]"
COc1cccc(CNC(=O)Cc2ccc(NC(=O)N3CCCCc4ccccc43)cc2)c1OC,AC50,[1],"39.8 µM [falling, single point]"
COc1cc(NC(=O)CCc2nc(-c3cccs3)no2)cc(OC)c1OC,AC50,[1],"39.8 µM [falling, single point]"
O=C(c1ccccc1)c1nc[nH]c1C(=O)Nc1ccccc1,AC50,[1],"15.8 µM [falling, partial curve]"
c1coc(-c2nnc(SCc3nc4ccccc4[nH]3)o2)c1,AC50,[1],"25.1 µM [falling, partial curve]"
Cc1ccc(C(=O)CC2(O)C(=O)N(CCc3ccccc3)c3ccc(Cl)cc32)cc1 (centres undefined),AC50,[1],"15.8 µM [falling, partial curve]"
CC(C)OC(=O)c1cccnc1SCc1cc(=O)n2ccccc2n1,AC50,[1],"12.6 µM [falling, partial curve]"
c1ccc(Sc2nc(N3CCCCC3)nc(N3CCCCC3)n2)nc1,AC50,[1],"15.8 µM [falling, partial curve]"
CCOc1ccc(-c2nn(CC(=O)NC3CCCCC3)c3c2cnc2ccc(C)cc23)cc1,AC50,[1],"3.98 µM [falling, partial curve]"
Cc1ccc(Cl)cc1N1CCN(C(=O)Cn2ccc3ccccc3c2=O)CC1,AC50,[1],"10 µM [falling, partial curve]"
COc1cc(-c2noc(-c3ccc(NCc4ccccc4)c([N+](=O)[O-])c3)n2)cc(OC)c1OC,AC50,[1],"6.31 µM [falling, partial curve]"
Cc1ccc(C(=O)NCCc2ccc(Cl)cc2)cc1-n1c(C)nc2cccnc21,AC50,[1],"10 µM [falling, partial curve]"
COc1ccc(NC(=O)Cn2nnc3sc4c(c3c2=O)CCC(C)C4)c(OC)c1 (centres undefined),AC50,[1],"20 µM [falling, single point]"
C/C(=C1/SC(=S)N(CCC(=O)O)C1=O)c1ccc(O)cc1,AC50,[1],"2.51 µM [falling, full curve]"
CCn1c(=O)c2cc(C(=O)N(CCN(C)C)Cc3ccccc3)sc2c2ccccc21,AC50,[1],"39.8 µM [falling, single point]"
Cc1cc(C)cc(NC(=O)CSc2nc3c(oc4ccccc43)c(=O)n2-c2ccccc2F)c1,AC50,[1],"25.1 µM [falling, single point]"
COc1ccc2cc3cc(C(=O)NCc4ccc(C)cc4)oc3nc2c1,AC50,[1],"0.00501 µM [falling, full curve, poor fit]"
COc1ccc(OC)c(CCNC(=O)c2ccc3c(c2)N(Cc2ccc(C)cc2)CCS3)c1,AC50,[1],"15.8 µM [falling, partial curve]"
COc1ccc(F)cc1S(=O)(=O)NCCc1c(C)[nH]c2c(Cl)cccc12,AC50,[1],"0.794 µM [rising, partial curve]"
Cc1c(C(=O)CN2CCOCC2)[nH]c2ccccc12,AC50,[1],"20 µM [falling, partial curve]"
CCc1cccc(OCC(=O)Nc2ccc(S(=O)(=O)Nc3cc(C)nc(C)n3)cc2)c1,AC50,[1],"20 µM [falling, single point]"
Cc1ccc(-c2nnc(Nc3ccc(O)cc3)c3ccccc23)cc1S(=O)(=O)N1CCN(C)CC1,AC50,[1],"15.8 µM [falling, partial curve]"
COc1ccc(Nc2cc(C(=O)NCCc3ccc(C)cc3)c3ccccc3n2)c(OC)c1,AC50,[1],"3.16 µM [falling, full curve]"
O=c1[nH]n(CC2COC3(CCCCC3)O2)c(=O)c2ccccc12 (centres undefined),AC50,[1],"631 nM [rising, full curve] [measured here: IkB-luc green channel]"
COc1ccc(C(=O)SC2=NCCS2)cc1OC,AC50,[1],"31.6 µM [falling, partial curve]"
CCCCOc1ccc(C(=O)Nc2nnc3n2CCS3)cc1,AC50,[1],"39.8 µM [falling, single point]"
O=C(Nc1cccc(C(=O)OCc2cc(=O)n3nc(C4CC4)sc3n2)c1)c1ccccc1,AC50,[2],"3.16 µM [rising, single point]"
same,AC50,[3],"0.794 µM [falling, full curve]"
Cc1cc(C)cc(OC(C)C(=O)Nc2nonc2-c2ccc(Br)cc2)c1 (centres undefined),AC50,[1],"31.6 µM [falling, single point]"
Cc1ccc(Cl)cc1N(C)C(=O)Cn1nc(Cc2cccnc2)c2ccccc2c1=O,AC50,[1],"39.8 µM [falling, single point]"
Nc1c(-c2nc(-c3cccs3)no2)nnn1-c1ccccc1Cl,AC50,[1],"0.2 µM [rising, full curve]"
CCOc1cccc(CNC(=O)c2ccc(N3CCCC3)c(NC(=O)NCc3ccc(F)cc3)c2)c1,AC50,[1],"7.94 µM [falling, full curve, poor fit]"
CCN(CC)CCOC(=O)c1ccc(NC(=O)Cn2ncc3c([nH]c4ccc(C)cc43)c2=O)cc1,AC50,[1],"12.6 µM [falling, partial curve]"
Cc1ccc(-n2nc(C)c(C(=O)NCCCN3CCN(c4ccc(F)cc4)CC3)c2-n2cccc2)cc1,AC50,[1],"7.94 µM [falling, partial curve]"
Cc1ccnc(NC(=O)C2CCC(CNc3c(N4CCCC4)c(=O)c3=O)CC2)c1 (centres undefined),AC50,[2],"6.31 µM [falling, partial curve]"
same,AC50,[3],"7.94 µM [falling, full curve, poor fit]"
Cc1ccccc1CS(=O)(=O)CC1Nc2ccc(C(=O)NCc3ccc(Cl)cc3)cc2NC1=O (centres undefined),AC50,[1],"10 µM [falling, partial curve]"
CCN(CC)c1ccc2oc(=O)c(C)nc2c1,AC50,[2],"3.16 µM [rising, partial curve]"
same,AC50,[3],"15.8 µM [falling, partial curve]"
Cc1nc2ccccc2c2oc(C(=O)NCc3ccccn3)cc12,AC50,[1],"31.6 µM [falling, single point]"
CCOc1cc(C(=O)N2CC(=O)Nc3ccc(C)cc3C2c2ccccc2)cc(OCC)c1OCC (centres undefined),AC50,[1],"5.01 µM [falling, partial curve]"
CCc1ccc(CN(Cc2ccco2)C(=O)c2ccc(OC)cc2)cc1,AC50,[1],"31.6 µM [falling, single point]"
CCc1ccc(CNC(=O)CCC(=O)N2Cc3cccc(OC)c3Oc3ncccc32)cc1,AC50,[1],"39.8 µM [falling, single point]"
Cc1cc2ncn(-c3ncnc4sc(C)c(C)c34)c2cc1C,AC50,[1],"39.8 µM [falling, partial curve]"
O=C(C1CCN(S(=O)(=O)c2ccc(Br)s2)CC1)N1CCN(c2cccc(Cl)c2)CC1,AC50,[1],"12.6 µM [falling, partial curve]"
CCOc1ccc(CCNC(=O)c2sc3nc4n(c(=O)c3c2C)CCCC4)cc1OCC,AC50,[1],"15.8 µM [falling, partial curve]"
CCOC(=O)c1ccc(NC(=O)CCn2c(=O)c3cccn3c3ccccc32)cc1,AC50,[1],"31.6 µM [falling, single point]"
Cc1ccc2[nH]c(CSc3nnc(NC(=O)COc4ccccc4)s3)cc(=O)c2c1,AC50,[1],"15.8 µM [falling, partial curve]"
COc1ccc(-n2c(SCC(=O)Nc3ccc(Cl)c(C)c3)nc3n[nH]c(C)c3c2=N)cc1,AC50,[1],"5.01 µM [falling, full curve]"
CCOC(=O)c1c(NC(=O)c2ccc(S(=O)(=O)N3CCC(C)CC3)cc2)sc2c1CCN(C)C2,AC50,[1],"39.8 µM [falling, single point]"
CC1(C)Cc2ccccc2-c2nnc(SCC(=O)Nc3ccc4c(c3)OCO4)n21,AC50,[1],"12.6 µM [falling, partial curve]"
Cc1cccc(C)c1NC(=O)C(NS(=O)(=O)c1ccc2c(c1)CCC(=O)N2)c1ccccc1 (centres undefined),AC50,[1],"0.501 µM [falling, full curve]"
Cc1c2cnn(-c3ccccc3)c(=O)c2c(C)n1CCCC(=O)Nc1cc(F)ccc1F,AC50,[1],"12.6 µM [falling, partial curve]"
CCN(c1cccc(C)c1)S(=O)(=O)c1nnc(NC(=O)C2CCCCC2)s1,AC50,[1],"7.94 µM [falling, full curve, poor fit]"
O=C(CSC1=Nc2ccccc2C2=NC(CC(=O)NC3CCCCC3)C(=O)N12)Nc1ccc(F)cc1 (centres undefined),AC50,[1],"20 µM [falling, partial curve]"
COc1ccc(-c2nc3sc(CCNC(=O)c4cc(OC)c(OC)c(OC)c4)c(C)n3n2)cc1,AC50,[1],"20 µM [falling, partial curve]"
COc1ccc(N2CCN(S(=O)(=O)c3ccc4oc(=O)c5ncn(C)c5c4c3)CC2)cc1,AC50,[1],"0.0126 µM [rising, full curve]"
CCCCOCCCn1c(-c2ccco2)nc2nc3ccccc3nc21,AC50,[1],"12.6 µM [falling, partial curve]"
CCCn1c(SCc2ccc(Cl)cc2)nc2c1c(=O)[nH]c(=O)n2C,AC50,[1],"39.8 µM [falling, single point]"

# Quoted at random: 4 records from the list.
structure (smiles),measurement,setting,value
Cc1ccc(C(C)C)c(OCC(=O)Nc2ccc(C(=O)OC3CCCCC3)cc2)c1,AC50,[1],"0.1 µM [rising, full curve]"
COCCn1ccc2c(OCC(=O)Nc3cccc(OC)c3)cccc2c1=O,AC50,[1],"12.6 µM [falling, partial curve]"
Cc1ccc(Cl)cc1N1CCN(C(=O)COc2ccc(S(=O)(=O)NC(C)C)cc2)CC1,AC50,[1],"12.6 µM [falling, partial curve]"
Cc1ccnc(NC(=O)C2CCC(CNc3c(N4CCCC4)c(=O)c3=O)CC2)c1 (centres undefined),AC50,[3],"7.94 µM [falling, full curve, poor fit]"
